Results reported in patent US20180214452A1.
No constants are given. Whether binding was seen depends on the method and setting. In cells and extracts the contact can be indirect. Some binding calls cover weakened binding; strength is not graded here.

Amino acid sequences for entries named in this document (tags omitted). A change or cut given only in a name is not applied to a line headed by its entry.
UniProt P49815: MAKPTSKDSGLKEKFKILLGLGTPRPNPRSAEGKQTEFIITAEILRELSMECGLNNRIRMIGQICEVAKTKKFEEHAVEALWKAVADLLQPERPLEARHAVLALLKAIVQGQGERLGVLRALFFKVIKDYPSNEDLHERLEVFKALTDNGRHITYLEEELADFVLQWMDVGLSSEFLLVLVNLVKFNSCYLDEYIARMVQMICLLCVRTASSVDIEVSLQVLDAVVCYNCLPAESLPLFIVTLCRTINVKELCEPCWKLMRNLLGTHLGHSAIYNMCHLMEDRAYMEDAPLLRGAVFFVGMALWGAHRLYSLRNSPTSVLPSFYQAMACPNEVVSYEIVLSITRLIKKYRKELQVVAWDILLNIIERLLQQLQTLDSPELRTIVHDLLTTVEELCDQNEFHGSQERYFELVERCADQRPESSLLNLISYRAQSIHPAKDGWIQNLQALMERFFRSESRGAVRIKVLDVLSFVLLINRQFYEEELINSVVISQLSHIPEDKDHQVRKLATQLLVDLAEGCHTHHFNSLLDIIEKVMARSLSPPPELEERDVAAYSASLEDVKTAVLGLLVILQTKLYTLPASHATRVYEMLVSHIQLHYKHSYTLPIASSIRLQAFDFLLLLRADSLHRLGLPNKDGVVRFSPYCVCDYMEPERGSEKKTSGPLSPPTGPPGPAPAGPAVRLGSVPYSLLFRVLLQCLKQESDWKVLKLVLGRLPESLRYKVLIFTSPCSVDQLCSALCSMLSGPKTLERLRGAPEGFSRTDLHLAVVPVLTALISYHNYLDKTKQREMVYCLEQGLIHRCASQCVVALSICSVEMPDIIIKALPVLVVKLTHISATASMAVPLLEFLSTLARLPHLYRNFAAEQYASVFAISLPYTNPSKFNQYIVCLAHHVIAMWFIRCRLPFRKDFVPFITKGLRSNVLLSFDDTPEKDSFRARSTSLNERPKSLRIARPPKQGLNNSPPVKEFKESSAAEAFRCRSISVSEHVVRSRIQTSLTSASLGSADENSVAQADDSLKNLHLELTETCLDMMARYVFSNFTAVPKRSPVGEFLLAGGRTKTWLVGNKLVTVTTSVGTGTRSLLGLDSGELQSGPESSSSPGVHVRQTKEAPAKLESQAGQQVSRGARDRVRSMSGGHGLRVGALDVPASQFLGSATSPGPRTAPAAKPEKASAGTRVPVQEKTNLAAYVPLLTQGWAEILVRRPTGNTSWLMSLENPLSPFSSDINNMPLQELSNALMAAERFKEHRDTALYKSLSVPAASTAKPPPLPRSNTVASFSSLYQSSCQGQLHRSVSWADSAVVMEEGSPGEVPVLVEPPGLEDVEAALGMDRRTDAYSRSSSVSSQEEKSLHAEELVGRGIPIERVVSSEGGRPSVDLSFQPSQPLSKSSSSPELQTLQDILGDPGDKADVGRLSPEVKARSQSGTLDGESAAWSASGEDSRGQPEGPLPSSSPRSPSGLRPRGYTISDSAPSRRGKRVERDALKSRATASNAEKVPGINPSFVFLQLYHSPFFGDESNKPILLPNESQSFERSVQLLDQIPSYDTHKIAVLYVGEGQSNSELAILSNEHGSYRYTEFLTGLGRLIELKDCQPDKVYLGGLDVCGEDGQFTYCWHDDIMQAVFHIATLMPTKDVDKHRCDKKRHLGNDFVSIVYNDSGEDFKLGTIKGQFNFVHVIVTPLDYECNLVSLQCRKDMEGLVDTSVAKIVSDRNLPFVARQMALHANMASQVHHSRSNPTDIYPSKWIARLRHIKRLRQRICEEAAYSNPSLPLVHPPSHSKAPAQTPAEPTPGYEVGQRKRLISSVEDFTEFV

Target: wild-type TSC2 protein (Homo sapiens (Human)) (UniProt P49815)
Test: co-immunoprecipitation from transfected HEK293T cells, immunoblot

B1: wild-type TSC1 protein (protein)
chain: MAQQANVGELLAMLDSPMLGVRDDVTAVFKENLNSDRGPMLVNTLVDYYLETSSQPALHILTTLQEPHDKHLLDRINEYVGKAATRLSILSLLGHVIRLQPSWKHKLSQAPLLPSLLKCLKMDTDVVVLTTGVLVLITMLPMIPQSGKQHLLDFFDIFGRLSSWCLKKPGHVAEVYLVHLHASVYALFHRLYGMYPCNFVSFLRSHYSMKENLETFEEVVKPMMEHVRIHPELVTGSKDHELDPRRWKRLETHDVVIECAKISLDPTEASYEDGYSVSHQISARFPHRSADVTTSPYADTQNSYGCATSTPYSTSRLMLLNMPGQLPQTLSSPSTRLITEPPQATLWSPSMVCGMTTPPTSPGNVPPDLSHPYSKVFGTTAGGKGTPLGTPATSPPPAPLCHSDDYVHISLPQATVTPPRKEERMDSARPCLHRQHHLLNDRGSEEPPGSKGSVTLSDLPGFLGDLASEEDSIEKDKEEAAISRELSEITTAEAEPVVPRGGFDSPFYRDSLPGSQRKTHSAASSSQGASVNPEPLHSSLDKLGPDTPKQAFTPIDLPCGSADESPAGDRECQTSLETSIFTPSPCKIPPPTRVGFGSGQPPPYDHLFEVALPKTAHHFVIRKTEELLKKAKGNTEEDGVPSTSPMEVLDRLIQQGADAHSKELNKLPLPSKSVDWTHFGGSPPSDEIRTLRDQLLLLHNQLLYERFKRQQHALRNRRLLRKVIKAAALEEHNAAMKDQLKLQEKDIQMWKVSLQKEQARYNQLQEQRDTMVTKLHSQIRQLQHDREEFYNQSQELQTKLEDCRNMIAELRIELKKANNKVCHTELLLSQVSQKLSNSESVQQQMEFLNRQLLVLGEVNELYLEQLQNKHSDTTKEVEMMKAAYRKELEKNRSHVLQQTQRLDTSQKRILELESHLAKKDHLLLEQKKYLEDVKLQARGQLQAAESRYEAQKRITQVFELEILDLYGRLEKDGLLKKLEEEKAEAAEAAEERLDCCNDGCSDSMVGHNEEASGHNGETKTPRPSSARGSSGSRGGGGSSSSSSELSTPEKPPHQRAGPFSSRWETTMGEASASIPTTVGSLPSSKSFLGMKARELFRNKSESQCDEDGMTSSLSESLKTELGKDLGVEAKIPLNLDGPHPSPPTPDSVGQLHIMDYNETHHEHS
binding: binds
